Data: paper PMC10783636, “Chlorophyll biosynthesis under the control of arginine metabolism” (Cell Reports, 2023)
No constants are given. Whether binding was seen depends on the method and setting. Binding seen in cells or lysates may run through a third protein. A result given as binding can be weak or reduced; the word gives no strength. Sequences can lack the tags named with a protein.

Target: T1, 3×FLAG-tagged ArgD (N-acetylornithine aminotransferase) of Synechocystis sp. PCC 6803 (Synechocystis sp. PCC 6803) (UniProt P73133)
T1 sequence: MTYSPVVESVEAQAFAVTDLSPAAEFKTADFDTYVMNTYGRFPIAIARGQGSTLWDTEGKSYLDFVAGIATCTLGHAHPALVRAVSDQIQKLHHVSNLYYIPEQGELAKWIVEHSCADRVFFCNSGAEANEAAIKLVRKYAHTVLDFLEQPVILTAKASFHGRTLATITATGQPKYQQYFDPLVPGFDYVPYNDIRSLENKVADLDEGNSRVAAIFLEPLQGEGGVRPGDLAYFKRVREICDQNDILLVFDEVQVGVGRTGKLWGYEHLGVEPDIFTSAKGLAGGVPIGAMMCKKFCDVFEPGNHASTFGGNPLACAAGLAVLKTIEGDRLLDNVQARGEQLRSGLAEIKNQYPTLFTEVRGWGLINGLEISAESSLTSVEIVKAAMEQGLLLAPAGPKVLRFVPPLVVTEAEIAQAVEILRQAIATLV
Experiment: co-IP; f.ArgD or f.AstC purified from the soluble fraction of Synechocystis strains (ΔargD or ΔcphB background; cells with nitrate, without or with 1 mM Orn for 24 h) on anti-FLAG M2 gel, eluted with 3xFLAG peptide; SDS-PAGE, stained, blotted and probed with anti-Gun4 and anti-CphB

binding: binds
Substance: Gun4 protein of Synechocystis sp. PCC 6803 (native)
